According to doi:10.1101/2021.03.11.434917:
No constants are given. Whether binding was seen depends on the method and setting. In cells and extracts the contact can be indirect. Some binding calls cover weakened binding; strength is not graded here. Sequences can lack the tags named with a protein.

Amino acid sequences for entries named in this document (tags omitted).
UniProt Q60575: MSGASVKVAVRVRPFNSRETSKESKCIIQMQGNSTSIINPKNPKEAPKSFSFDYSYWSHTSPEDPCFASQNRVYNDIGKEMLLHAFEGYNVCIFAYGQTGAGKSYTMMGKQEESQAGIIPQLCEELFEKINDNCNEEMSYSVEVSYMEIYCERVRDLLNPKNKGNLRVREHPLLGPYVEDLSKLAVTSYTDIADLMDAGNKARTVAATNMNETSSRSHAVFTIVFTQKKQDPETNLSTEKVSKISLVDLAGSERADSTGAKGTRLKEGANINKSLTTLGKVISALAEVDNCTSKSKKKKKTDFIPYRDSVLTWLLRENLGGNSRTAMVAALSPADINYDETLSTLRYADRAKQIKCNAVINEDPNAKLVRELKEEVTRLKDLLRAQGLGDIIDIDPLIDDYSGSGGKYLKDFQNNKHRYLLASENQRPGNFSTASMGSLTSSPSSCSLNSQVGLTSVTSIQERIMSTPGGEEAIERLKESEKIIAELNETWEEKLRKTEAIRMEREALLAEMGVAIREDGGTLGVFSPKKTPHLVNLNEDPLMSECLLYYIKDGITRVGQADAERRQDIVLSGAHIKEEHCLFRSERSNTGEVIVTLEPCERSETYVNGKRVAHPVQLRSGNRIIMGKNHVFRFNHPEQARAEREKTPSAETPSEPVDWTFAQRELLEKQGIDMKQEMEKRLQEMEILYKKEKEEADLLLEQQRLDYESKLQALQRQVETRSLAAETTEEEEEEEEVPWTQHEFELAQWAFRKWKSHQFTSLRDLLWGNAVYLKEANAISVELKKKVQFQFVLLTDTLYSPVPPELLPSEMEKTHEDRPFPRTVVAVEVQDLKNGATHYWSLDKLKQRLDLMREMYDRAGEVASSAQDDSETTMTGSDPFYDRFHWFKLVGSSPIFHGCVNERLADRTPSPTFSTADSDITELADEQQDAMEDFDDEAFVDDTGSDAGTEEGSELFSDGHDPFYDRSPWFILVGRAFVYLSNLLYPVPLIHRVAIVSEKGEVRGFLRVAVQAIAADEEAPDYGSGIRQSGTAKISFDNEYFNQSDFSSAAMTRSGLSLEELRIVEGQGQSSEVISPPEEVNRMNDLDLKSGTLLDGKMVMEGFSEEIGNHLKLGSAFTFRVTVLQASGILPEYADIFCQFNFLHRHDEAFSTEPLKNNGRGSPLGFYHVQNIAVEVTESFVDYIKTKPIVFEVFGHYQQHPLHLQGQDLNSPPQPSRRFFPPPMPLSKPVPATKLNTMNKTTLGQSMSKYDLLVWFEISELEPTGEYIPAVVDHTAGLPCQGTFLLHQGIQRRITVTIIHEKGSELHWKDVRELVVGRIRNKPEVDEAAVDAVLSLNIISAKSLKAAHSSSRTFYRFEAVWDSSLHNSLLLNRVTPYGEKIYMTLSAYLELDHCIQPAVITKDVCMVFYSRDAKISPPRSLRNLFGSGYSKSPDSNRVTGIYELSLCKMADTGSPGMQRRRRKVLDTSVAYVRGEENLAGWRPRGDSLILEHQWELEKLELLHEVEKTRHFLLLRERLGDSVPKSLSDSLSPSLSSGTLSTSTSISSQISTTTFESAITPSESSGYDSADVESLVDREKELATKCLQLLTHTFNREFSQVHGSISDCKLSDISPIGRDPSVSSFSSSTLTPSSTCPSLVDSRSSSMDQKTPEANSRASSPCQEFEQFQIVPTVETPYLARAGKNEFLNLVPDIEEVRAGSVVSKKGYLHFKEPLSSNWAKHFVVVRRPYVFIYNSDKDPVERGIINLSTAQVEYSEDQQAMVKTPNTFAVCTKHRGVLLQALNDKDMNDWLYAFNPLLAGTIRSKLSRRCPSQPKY
UniProt Q61768: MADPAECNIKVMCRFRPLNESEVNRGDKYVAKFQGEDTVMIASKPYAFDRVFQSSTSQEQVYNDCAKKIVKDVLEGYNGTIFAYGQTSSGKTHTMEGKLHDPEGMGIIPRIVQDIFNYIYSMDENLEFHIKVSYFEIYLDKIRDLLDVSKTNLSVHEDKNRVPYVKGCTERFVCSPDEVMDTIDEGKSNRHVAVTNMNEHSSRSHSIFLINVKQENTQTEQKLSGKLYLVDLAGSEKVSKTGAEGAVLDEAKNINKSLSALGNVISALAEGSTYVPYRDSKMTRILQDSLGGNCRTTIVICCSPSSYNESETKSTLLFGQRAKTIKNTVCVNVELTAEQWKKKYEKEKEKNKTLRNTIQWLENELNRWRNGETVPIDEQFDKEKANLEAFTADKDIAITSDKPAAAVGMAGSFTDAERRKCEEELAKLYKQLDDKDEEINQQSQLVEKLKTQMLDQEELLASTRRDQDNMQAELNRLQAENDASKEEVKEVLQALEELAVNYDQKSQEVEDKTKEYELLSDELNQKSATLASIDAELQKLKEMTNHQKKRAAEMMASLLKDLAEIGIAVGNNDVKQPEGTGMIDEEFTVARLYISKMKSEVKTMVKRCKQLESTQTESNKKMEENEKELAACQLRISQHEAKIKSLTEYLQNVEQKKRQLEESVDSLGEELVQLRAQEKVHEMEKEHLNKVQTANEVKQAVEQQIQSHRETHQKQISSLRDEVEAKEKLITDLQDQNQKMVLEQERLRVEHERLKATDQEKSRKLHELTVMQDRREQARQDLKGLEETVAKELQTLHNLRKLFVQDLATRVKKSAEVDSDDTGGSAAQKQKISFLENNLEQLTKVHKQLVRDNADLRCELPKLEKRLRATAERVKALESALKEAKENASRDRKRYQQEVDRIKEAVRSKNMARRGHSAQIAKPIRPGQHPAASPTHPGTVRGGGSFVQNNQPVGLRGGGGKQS

Molecular target: T1, GST-SKIP (1-282) (UniProt Q8IWE5)
T1 sequence: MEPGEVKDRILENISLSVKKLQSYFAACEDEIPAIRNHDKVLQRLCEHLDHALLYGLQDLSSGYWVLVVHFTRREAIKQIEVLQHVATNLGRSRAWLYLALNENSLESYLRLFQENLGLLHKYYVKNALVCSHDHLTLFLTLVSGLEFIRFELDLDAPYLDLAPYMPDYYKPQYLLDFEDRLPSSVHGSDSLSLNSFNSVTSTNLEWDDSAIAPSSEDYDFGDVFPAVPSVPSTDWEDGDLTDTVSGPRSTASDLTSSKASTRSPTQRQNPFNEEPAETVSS
Assay: pull-down

For “KIF1B (endogenous, melanosome lysate) (from UniProt Q60575 1-1816)”, the binding was “binds”.

With “KIF5B (endogenous, melanosome lysate) (from UniProt Q61768 1-963)” the binding was “binds”.
